This assay has as its target T1, 5-hydroxytryptamine receptor 1A (Rattus norvegicus, UniProt P19327).
T1 sequence (P19327 whole entry): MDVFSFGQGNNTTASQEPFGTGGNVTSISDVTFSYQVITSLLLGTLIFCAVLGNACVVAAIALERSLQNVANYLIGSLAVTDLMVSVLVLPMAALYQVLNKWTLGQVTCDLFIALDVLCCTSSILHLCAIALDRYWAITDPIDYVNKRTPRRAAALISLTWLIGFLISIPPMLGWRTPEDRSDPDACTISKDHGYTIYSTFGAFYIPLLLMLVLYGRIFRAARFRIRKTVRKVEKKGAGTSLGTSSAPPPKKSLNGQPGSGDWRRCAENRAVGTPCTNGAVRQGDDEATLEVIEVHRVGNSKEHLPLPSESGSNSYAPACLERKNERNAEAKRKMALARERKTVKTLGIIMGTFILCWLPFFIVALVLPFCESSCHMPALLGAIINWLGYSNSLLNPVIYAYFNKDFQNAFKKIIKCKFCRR
The assay is described as follows: Binding affinity towards 5-hydroxytryptamine 1A receptor in rat frontal cortex using [3H]8-OH-DPAT as a radioligand. Type of assay: tissue-based. An outline of the steps: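 Radioligand binding on rat brain membranes, labelling the 5-HT1A site with [3H]-8-OH-DPAT as the selective ligand.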

Usually IC50 stands for the concentration at which inhibition is half-maximal. A higher IC50 goes with lower potency.

Regarding `CC(C)NC[C@@H](O)COc1cccc2ccccc12` [DEXPROPRANOLOL], the IC50 is 0.17 µM.
